Measurements: the supplement of paper PMC3334620
Over roughly 33,000 sequences, “E-score (-0.5 to 0.5)” has its median near -8e-05; the highest 2% begin near 0.23. The list shows a part of the results.

biological target: T1, Nrg2 (UniProt P38082); assay: PBM E-score (8-mer binding enrichment) (E-score (-0.5 to 0.5)); higher = stronger / more preferred TF binding; conditions: protein concentration: 100 nM; construct: GST-full length
T1 sequence: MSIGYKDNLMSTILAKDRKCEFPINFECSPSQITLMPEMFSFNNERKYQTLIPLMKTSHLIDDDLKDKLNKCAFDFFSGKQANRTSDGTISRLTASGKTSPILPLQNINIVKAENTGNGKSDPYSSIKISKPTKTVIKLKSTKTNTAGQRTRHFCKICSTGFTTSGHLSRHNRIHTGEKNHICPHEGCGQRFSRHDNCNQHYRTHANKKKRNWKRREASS
How it was run: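 Full-length yeast transcription factors or their DNA-binding domains, GST-tagged and expressed with PURExpress, were applied at about 100-200 nM to universal all-10-mer Agilent arrays. These arrays had been made double-stranded by primer extension on fresh or once-stripped slides. Detection used fluorescent anti-GST, normalisation used masliner, and E-scores for ungapped eight-base words pooled with reverse complements came from the Universal PBM Analysis Suite.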

| Sequence | PBM E-score |
| --- | --- |
| AGTCCCTC | -0.0587 |
| AAGGTATG | 0.0619 |
| ATTCGAGA | -0.0181 |
| ACTTGTGA | 0.0543 |
| ACCCACCC | 0.243 |
| GACATCAA | 0.15 |
| CTCCCGCA | 0.0284 |
| GGTAGTAC | 0.031 |
| AACACAAG | -0.0753 |
| TGAAAACA | -0.00213 |
| AGAAAGCA | 0.168 |
| CCACTCCC | -0.128 |
| ATCTATAC | 0.0281 |
| AACACAGC | 0.165 |
| CGGCTTGC | 0.237 |
| GGTTGGGA | -0.0747 |
| CATATCGA | 0.118 |
| CAGGCGGC | -0.16 |
| CTCAACAC | 0.117 |
| ACACTTAT | -0.00232 |
| CACTTCAG | -0.0458 |
| AATCCTCT | -0.15 |

| Sequence | PBM E-score |
| --- | --- |
| ACCGTACT | 0.0735 |
| ACCGTTGA | -0.221 |
| CTGACCCC | -0.124 |
| ACTACTGA | -0.00181 |
| GAAGGTGA | -0.0461 |
| AGTGCTTC | -0.111 |
| AAAACTTC | -0.046 |
| GGGATGAA | -0.0477 |
| AGCATTAC | -0.183 |
| AAAGTATC | 0.0914 |
| ACTGCCGG | -0.0445 |
| ATCGCCTC | 0.204 |
| ATAAACCA | -0.0416 |
| AATCTCCG | 0.0391 |
| TGCCTGAA | -0.223 |
| CTCCGATC | -0.23 |
| ACTCACAG | 0.00097 |
| CTCGGCCC | -0.116 |
| AGGAATAG | -0.0381 |
| GCTGGAAA | 0.018 |
| CATTTCAA | 0.153 |
| GAGGCATA | 0.123 |

Quoted at random: 3 records from the list.

| Sequence | PBM E-score |
| --- | --- |
| AAAGTATC | 0.0914 |
| ACTACTGA | -0.00181 |
| ACCGTACT | 0.0735 |

Remaining list, next part

| Sequence | PBM E-score |
| --- | --- |
| CGCGAACG | -0.066 |
| AGCTGACC | -0.0748 |
| AAACGATC | 0.00138 |
| GAATAGGC | 0.0276 |
| CGGCCTCC | -0.144 |
| ACCTACGC | -0.0522 |
| AAGGCCGA | 0.137 |
| AGTAACAT | 0.179 |
| AGACGTAG | 0.032 |
| ATGGACGC | 0.0601 |
| AGGGCACA | 0.138 |
| GATCCTCA | 0.0679 |
| CAGTCTCA | 0.0132 |
| ATGCCAGC | -0.157 |
| GGGATCCC | 0.0911 |
| AGCATGAT | -0.106 |
| ATCTCAAA | 0.14 |
| GCGACAAA | 0.192 |
| ACACTGAA | 0.171 |
| CAAGACTA | -0.066 |
| CATGGGAG | -0.0167 |
| TGTGGCAA | 0.0757 |

| Sequence | PBM E-score |
| --- | --- |
| GACTCCAA | -0.258 |
| GAACTGCA | 0.0913 |
| GATATCAA | 0.122 |
| GCTACAGA | -0.251 |
| CCTGACCA | 0.142 |
| CGCGGTAG | -0.0358 |
| CAGACTTA | -0.179 |
| AGATTGAA | 0.0428 |
| AACATACC | -0.037 |
| TCTCCGAA | -0.101 |
| ACAGGATA | -0.0268 |
| TCATACCA | -0.00103 |
| GCGGTAAA | -0.0772 |
| ACGCTCCA | -0.0774 |
| ATACCTCC | -0.312 |
| ACCTCCCC | -0.174 |
| CCCGCCCG | 0.0802 |
| ATCTGATA | -0.115 |
| ATTGTCTA | 0.223 |
| GCAATCGC | -0.152 |
